Several values for one entry are separate records, joined by “and”; a condition that tells them apart may be missing. Identical values can stand only once. Out of some 2,100 compounds screened, about 180 (8.6%) showed an effect of 50% or more. Some of the results follow.

Broadly, the cell viability is a read-out of living cells in per cent, often relative to untreated cells.

The subject of this assay is MOLM1 and UCSD/AML1 (averaged). The experiment in a line: cell viability relative to DMSO control (POC); higher = less growth inhibition. As to conditions: 1 µM; 72 h. As to the method:
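Primary viability screen in the 3q26 EVI1-high AML cell lines MOLM1 and UCSD/AML1 (1.5e3 cells/well, 384-well), compounds at 1 uM for 72 h. ATP CellTiter-Glo read-out given as percent of viable cells over DMSO control (POC), averaged over duplicates. DMSO was the negative control and 5 uM etoposide the positive control. This mapping covers the MicroSource Spectrum and Selleck anticancer libraries (drug names).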
Regarding `CNc1ccccc1C(=O)O`, the cell viability worked out at 104%. The figure for `CCC(C)C(=O)O[C@@H]1C[C@@]2(C)[C@H](c3ccoc3)OC(=O)CC23OC2(C)O[C@]14[C@]1(C)[C@@H](CC(=O)OC)C5(C)CC1(O)[C@](O)(C5OC(=O)C1(C)OC1C)[C@@H](OC(C)=O)[C@]34O2` (stereo not given in full) is 95.6%. To `COC1=C[C@@H]2[C@@H]3Cc4ccc(OC)c(O)c4[C@]2(CCN3C)CC1=O` belongs 81.5%; to `CCOC(=O)C1C(C=C(C)C)C1(C)C` (stereo not given), 104%; to `C/C(=C\c1csc(C)n1)[C@@H]1C[C@@H]2O[C@@H]2CCC[C@H](C)[C@H](O)[C@@H](C)C(=O)C(C)(C)[C@@H](O)CC(=O)O1` [Epothilone A], 18.5%. The figure for `O=C1C=CC(=O)c2ccccc21` is 89.5%. In the case of `CN[C@@H](C)[C@@H](O)c1ccccc1`, the cell viability was 105%. Regarding `CN1[C@@H]2C[C@@H](OC(=O)[C@H](CO)c3ccccc3)C[C@H]1[C@@H]1O[C@@H]12`, the cell viability amounted to 103%. On to `C[C@@H]1O[C@@H](O[C@H]2CC[C@]3(C=O)[C@H]4CC[C@]5(C)[C@@H](C6=CC(=O)OC6)CC[C@]5(O)[C@@H]4CC[C@]3(O)C2)[C@H](O)[C@H](O)[C@H]1O`, for which the cell viability worked out at 1.83%.

As for `CC1(C)C2CC(=O)[C@]3(C)C(CC[C@@]4(C)[C@H](c5ccoc5)OC(=O)C5OC543)[C@@]2(C)[C@@H](O)C[C@H]1O` (stereo not given in full), the cell viability is 88.5%. The figure for `C[C@]12CCC(=O)C=C1C=C[C@@H]1[C@@H]2CC[C@@]2(C)[C@H]1CC[C@@]2(O)CCC(=O)O` is 111%; for `CO[C@H]1[C@H](O)[C@H](O[C@H]2CC[C@@]3(C=O)[C@H](CC[C@@H]4[C@@H]3CC[C@]3(C)[C@@H](C5=CC(=O)OC5)CC[C@]43O)C2)O[C@@H](C)[C@@H]1O` it is 1.75%; for `CC(=O)O[C@@H]1[C@H]2CC[C@H]3[C@@](C)(O)[C@@H]4C[C@H](O)C(C)(C)[C@@]4(O)[C@H](O)C[C@@]13C[C@@]2(C)O` it is 100%.

With `CC[C@@H](C(=O)[C@@H](C)[C@@H](O)[C@H](C)[C@@H]1O[C@@H]([C@@H](CC)C(=O)O)CC[C@@H]1C)[C@H]1O[C@]2(C=C[C@@H](O)[C@]3(CC[C@@](C)([C@H]4CC[C@](O)(CC)[C@H](C)O4)O3)O2)[C@H](C)C[C@@H]1C`, the cell viability amounted to 20.9%. The figure for `COP(=O)(OC)OC=C(Cl)Cl` is 99.5%; for `S=C=NCc1ccccc1` it is 95.3%; for `COP(=O)(OC)C(O)C(Cl)(Cl)Cl` (stereo not given) it is 86.7%. The figure for `CNC1CC(N)C(O)C(OC2OC(CO)C(O)C3OC4(OC(C(N)CO)C(O)C(O)C4O)OC23)C1O` (stereo not given) is 103%; for `CCCC(C)C1(CC)C(=O)NC(=O)NC1=O` (stereo not given) it is 92.6%; for `C=CCc1ccc2c(c1)OCO2` it is 97.9%. The figure for `C[C@@H]1C(=O)O[C@H]2[C@H]1CC[C@@]1(C)C=CC(=O)[C@@]3(C)O[C@@]213` [EPOXY (4,5alpha)-4,5-DIHYDROSANTONIN] is 95.7%; for `Cn1cc(C2=C(c3cn(C4CCN(Cc5ccccn5)CC4)c4ccccc34)C(=O)NC2=O)c2ccccc21` it is 111%. On to `C[C@]12CCC(=O)C[C@@H]1CC[C@@H]1[C@@H]2CC[C@]2(C)C(=O)CC[C@@H]12` [5alpha-ANDROSTAN-3,17-DIONE], for which the cell viability stood at 101%.

As to `CC(=O)O[C@H]1C[C@@H]2CC[C@@H]3[C@H](CC[C@@]4(C)[C@H]3C[C@H]([N+]3(C)CCCCC3)[C@@H]4OC(C)=O)[C@@]2(C)C[C@@H]1[N+]1(C)CCCCC1`, the cell viability came out at 88.6%.

`C[C@]12CC[C@H](O)C[C@H]1CC[C@@H]1[C@@H]2CC[C@]2(C)[C@@H](C3=CC(=O)OC3)[C@@H](O)C[C@]12O`: the cell viability came to 99.6%. On to `Cc1ccc(/N=C/N(C)/C=N/c2ccc(C)cc2C)c(C)c1`, for which the cell viability was found to be 51.7%. The figure for `O=c1c2ccccc2[se]n1-c1ccccc1` is 97.5%; for `C[C@]12CC[C@H]3[C@@H](CCC4=CC(=O)CC[C@@]43C)[C@@H]1CC[C@@H]2O` it is 103%. The figure for `O=c1ccc2cc(O[C@@H]3O[C@H](CO)[C@@H](O)[C@H](O)[C@H]3O)c(O)cc2o1` is 100% and 101%; for `NCC(O)c1ccc(O)cc1` (stereo not given) it is 104%; for `O=C(NC(=O)c1ccccc1Cl)Nc1ccc(OC(F)(F)F)cc1` it is 113%. To `C[C@]12CCC(=O)C(O)=C1CC[C@@H]1[C@@H]2CC[C@]2(C)C(=O)CC[C@@H]12` belongs 111%. Turning to `C[C@]12CCC(=O)C(O)=C1CC[C@@H]1[C@@H]2CC[C@]2(C)C(=O)CC[C@@H]12` [Formestane], the cell viability is 96.3%. As to `CNC(Cc1c[nH]c2ccccc12)C(=O)O` (stereo not given), the cell viability was found to be 102%. For the molecule `CNC(C)(C)Cc1ccccc1`, the cell viability worked out at 116%. The figure for `CC(C)C[C@H]1C(=O)N2CCC[C@H]2[C@]2(O)O[C@](NC(=O)[C@@H]3C=C4c5cccc6[nH]c(Br)c(c56)C[C@H]4N(C)C3)(C(C)C)C(=O)N12` is 108%; for `CN1[C@@H]2CC[C@H]1C[C@@H](OC(=O)C(CO)c1ccccc1)C2` (stereo not given in full) it is 104%; for `O=c1c(O)c(-c2ccc(O)c(O)c2)oc2c(O)c(O)cc(O)c12` it is 103%.

With `CN1CCc2cc3c(cc2C1O)OCO3` (stereo not given), the cell viability came out at 102%. To `COc1ccc(C(=O)O)cc1OC` belongs 99.7%; to `CC1(C)C2CC(=O)[C@]3(C)C(CC[C@@]4(C)[C@H](c5ccoc5)OC(=O)[C@H]5O[C@]543)[C@@]2(C)C(=O)C[C@H]1O` (stereo not given in full), 87.6%; to `NCC(=O)c1ccccc1`, 130%.

As to `CNC(=O)Oc1ccc2c(c1)[C@]1(C)CCN(C)[C@@H]1N2C`, the cell viability was found to be 106%. To `CN(C)C(=O)Oc1cccc([N+](C)(C)C)c1` belongs 93.5%; to `CN1[C@H]2C[C@H](OC(=O)[C@H](CO)c3ccccc3)C[C@@H]1[C@@H](O)C2`, 103%; to `COc1ccc(C(CN(C)C)C2(O)CCCCC2)cc1` (stereo not given), 115%. To `C#CCN(C)[C@H](C)Cc1ccccc1` belongs 84.3%; to `C[C@@H]1O[C@@H](O[C@@H]2C=C3CC[C@@H]4[C@H](CC[C@]5(C)[C@@H](c6ccc(=O)oc6)CC[C@]45O)[C@@]3(C)CC2)[C@H](O)[C@H](O)[C@H]1O`, 2.01%; to `CN(C)C(=O)Oc1ccc[n+](C)c1`, 110%.

For the molecule `O=c1[nH]c2ccccc2n1C1CCN(CCCC(c2ccc(F)cc2)c2ccc(F)cc2)CC1`, the cell viability was 94.7%. The figure for `CC(=O)[O][Hg][c]1ccccc1` is 1.17%; for `CC(=O)Nc1cc([As](=O)(O)O)ccc1O` it is 95.1%; for `Cc1cc2c(C(C)C)c(O)c(O)c(C=O)c2c(O)c1-c1c(C)cc2c(C(C)C)c(O)c(O)c(C=O)c2c1O` it is 85.6%. To `CC1=C2C[C@H]3[C@@H](CC=C4C[C@@H](O)CC[C@@]43C)[C@@H]2CC[C@]12O[C@@H]1C[C@H](C)CN[C@H]1[C@H]2C` [Cyclopamine] belongs 91.3%; to `COc1cccc2c1cc([N+](=O)[O-])c1c(C(=O)O)cc3c(c12)OCO3`, 84.4%.

Turning to `COP(=S)(OC)Oc1cc(Cl)c(Cl)cc1Cl`, the cell viability came out at 122%. The figure for `COc1cc2occc2c2oc(=O)ccc12` is 110%; for `Nc1ccc([As](=O)(O)O)cc1` it is 94.1%. To `COC1=C[C@]23CCCN2CCc2cc4c(cc2[C@@H]3[C@@H]1O)OCO4` belongs 98.9%; to `NCCCNCCSP(=O)(O)O`, 101%. As for `c1ccc2c(c1)[nH]c1cnccc12`, the cell viability amounted to 92.1%. The figure for `C[C@@H]1CC[C@]2(NC1)O[C@H]1C[C@H]3[C@@H]4CC=C5C[C@@H](O)CC[C@]5(C)[C@H]4CC[C@]3(C)[C@H]1[C@@H]2C` is 94.1%; for `COc1ccc(OC)c(C(O)C(C)N)c1` (stereo not given) it is 99.8%; for `CCC(=O)O[C@H]1CC[C@H]2[C@@H]3CCC4=CC(=O)CC[C@]4(C)[C@H]3CC[C@]12C` it is 97.6%. On to `C[C@H]1CC[C@]2(NC1)O[C@H]1C[C@H]3[C@@H]4CC[C@H]5C[C@@H](O[C@@H]6O[C@H](CO)[C@H](O[C@@H]7O[C@H](CO)[C@@H](O)[C@H](O[C@@H]8OC[C@@H](O)[C@H](O)[C@H]8O)[C@H]7O[C@@H]7O[C@H](CO)[C@@H](O)[C@H](O)[C@H]7O)[C@H](O)[C@H]6O)CC[C@]5(C)[C@H]4CC[C@]3(C)[C@H]1[C@@H]2C`, for which the cell viability was determined as 65.2%.

As for `Cc1c(O)c(O)cc2c1CC=C1[C@@]2(C)CC[C@@]2(C)[C@@H]3C[C@](C)(C(=O)O)CC[C@]3(C)CC[C@]12C`, the cell viability was 11.5%. To `O=C1CCO1` belongs 91%. The figure for `CC(=O)O[C@@H]1C[C@H]2C(C)(C)C(=O)C=C[C@]2(C)[C@H]2CC[C@]3(C)C(=CC(=O)O[C@H]3c3ccoc3)[C@@]21C` is 75.1%; for `N[C@@H]1C[C@H]1c1ccccc1.N[C@H]1C[C@@H]1c1ccccc1` it is 93.1%; for `COc1cc(OC)c(OC)cc1C=O` it is 98.1%.

On to `C[N+]1(C)CCCC(OC(=O)C(O)(c2ccccc2)c2ccccc2)C1` (stereo not given), for which the cell viability came out at 98.3%.

For the molecule `CN1C2CCC1CC(O)C2` (stereo not given), the cell viability was 109%. The figure for `CCCC(C)(COC(N)=O)COC(=O)NC(C)C` (stereo not given) is 112%. The figure for `COC(C)(C)CCC[C@H](C)C/C=C/C(C)=C/C(=O)OC(C)C` is 102%; for `C[C@@]12C(=O)OC(=O)[C@]1(C)[C@H]1CC[C@@H]2O1` it is 101%. The figure for `Cl[C@H]1[C@H](Cl)[C@@H](Cl)[C@@H](Cl)[C@H](Cl)[C@H]1Cl` is 106%; for `C=C1C[C@@H]2[C@H](CC[C@]3(C)C(=O)CC[C@@H]23)[C@@]2(C)C=CC(=O)C=C12` [Exemestane] it is 100%; for `CC(C)=CCC[C@]1(C)C=Cc2c(O)c3c(c(CC=C(C)C)c2O1)O[C@]12C(=C[C@@H]4C[C@H]1C(C)(C)O[C@@]2(C/C=C(/C)C(N)=O)C4=O)C3=O` it is 13.2%. In the case of `CC1CC(Cl)CCC1C(=O)OC(C)(C)C` (stereo not given), the cell viability turned out to be 102%. Turning to `COc1cc([C@@H]2c3cc4c(cc3[C@H](OC(C)=O)[C@H]3COC(=O)[C@@H]23)OCO4)cc(OC)c1OC`, the cell viability was 34.9%.

For `O=P1(N(CCCl)CCCl)NCCCO1` (stereo not given) [Clafen (Cyclophosphamide)], the cell viability came to 99.4%.

Turning to `O=P1(N(CCCl)CCCl)NCCCO1` (stereo not given) [Cyclophosphamide monohydrate], the cell viability came out at 102%. With `O=P1(N(CCCl)CCCl)NCCCO1` (stereo not given), the cell viability amounted to 96.6%.

On to `c1ccc2c(c1)sc1ccccc12`, for which the cell viability came to 104%.

As to `CN1C(=O)CCS(=O)(=O)C1c1ccc(Cl)cc1` (stereo not given), the cell viability was 106%.

The values are drawn from the supplement of paper PMC11150407.
